Test results taken from publication PMC6904755.
No constants are given. Whether binding was seen depends on the method and setting. Some binding calls cover weakened binding; strength is not graded here.

Target: Drosophila Gemin3, full-length (wild type) (Drosophila) (UniProt Q9V3C4)
Assay: two-hybrid; GAL4-BD baits (pASΔΔ, strain CG1945) mated with GAL4-AD preys (pACT2st, strain Y187); β-galactosidase activity of the GAL1-LacZ reporter measured from extracts of cells grown in –Trp–Leu medium

binding: binds
B1: Drosophila Gemin3, full-length (wild type) (protein, UniProt Q9V3C4 1-1028)
chain: MEREIAHSLAGGEERSSDVAPGQVKTFEELRLYRNLLNGLKRNNFVTPTKIQAAAIPMALAKMDLIIQSKSGTGKTLIYVIAVVQSFNPNINQPHAMIVVPTRELAIQVQDTFFHLCKSFRDFKCSAFIGGTDVAKDRKRMNESRVIIGTPGRLLHLYENRVFDVSKLRLLVLDEADQLYQTKSLQHTVSKLIEAMPKNRQIIACSATYDQNLDERLAKVMDKPMLISNSERATVLLGIRQFVYELPQQNNSVEEMRLKLQILGQIFNQLPYEQAIIFASSQMRADSYKNYLTASGIDCHLISGAMEQSERLHVFEGYRNFTMRILVATDLMARGVDSPHANLVINIDPPQDHVTYLHRIGRAGRFGSKGIAITFIASKKESQRFREMSKKIATAWSVLEFPKEPMPNEFNFWDFEKYNFDYYIKEENPLQEMPMPIKENRSKENVDASSVDLENLQKDQDGKRRDPDKLPVALENVETQKELELENLPESSHNNKNLRVKEKEIVRQGKLKETNSKAGGSKTNKTERRKKSNTPSKLQKQITEVQQTPEITVNKYYMQEDIQRTADGKEYHPVNGAGNHQVPSKSNQKPVEFISPELTPTLTPLELTQEPSPTTVTPPAPPANSINNKTYCLAAPTQTSSMTIQNMVISNTVDDASSISSDSMVVCGYHSDRSYDTYYATSDEEEIWNRLMSKQRRQLKSKRGHGKRRVILYKKVFPKLKANVKRKLKKRMSSSCRSKKAHHLRKRHVYKNISLLPHMNLCHLLQKFTNQERFLKRLHKYAKNQFIDNARVGFLLDKLYKSILEMYYNSAKERKKHFKEAMKESLKSIDNYESQESSESEEEEEEEKDLKNKLSVHVTNQMDIPPMPQAAVEIGSGSESDTEDSQEYGEGEEIIVDDEDDGSDGGPNSSSGFVESQESVSSGIDTSVYETESTGASGNNSSAFFISDDESDTESLTDSEAGSNVSATGSSSQRSSVASSTYESSDDDSVTVTNVSSMQNAQSLWLQTFNMQYQFIASHVAKNLQNYY
